Out of some 52,000 sequences screened, about 210 (0.4%) were called active.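 Rule for the calls: active = gene whose silencing raises cell survival under the drug, median off-target-corrected z-score across its silencing RNAs 2 or more; inactive = the rest.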 The list shows a part of the results.
assay: Resistance to Poly (ADP-Ribose) Polymerase inhibitor: Gene Identification via Genome-wide siRNA Screen; details: mouse BRCA2 R2336H ES cells, olaparib, CellTiter-Glo viability; hits give high values
In short: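 Genome-wide siRNA screen (3 siRNAs/gene, 20 nM) in mouse ES cells carrying hypomorphic BRCA2 R2336H; olaparib 500 nM added 48 h post-transfection, CellTiter-Glo viability 72 h later. Normalized to plate-median negative control; MAD z-scores, gene median, seed-adjusted.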

Sequence	z-score
GGAGAUCCGAUGUUAUGUGTT against Atp9a	inactive: -0.699
CCUCAAAUGGCCACACACUTT against Kcnj11	inactive: -1.53
GGACCCUACAUUCUGUAUATT against Olfr474	inactive: -0.118
CCUUAUUCAACCAUACGGCTT against Fut10	inactive: -0.165
GCCAAAUUGACUGUAAAUGTT against Lrig2	inactive: 0.225
GGGAGAGGGAACAUUCAAGTT against BC040774	inactive: 0.4
GGUUGUUCCCUUGAAAGGCTT against Gamt	inactive: -1.02
GGAGAGUGCAAGGAAGAAGTT against 2410004L22Rik	inactive: -1.14
GGAGCUAGAAAAGACAUACTT against Lmna	inactive: 0.332
GGAGAUCUGCUCUAAUUAUTT against Eif1ay	inactive: -1
GGGAGCAUCAAACAACAAUTT against Tbr1	inactive: 1.41
GGAGGCCAAGCAGAAAGAGTT against Kars	inactive: 0.607
GGAUUGUGAGGUUGUAAUGTT against Hnrpu	inactive: -2.03
GCCAAAAGGAGGACAUACCTT against D830007F02Rik	inactive: 1.13
GGUGGACCUGCACUUUACCTT against A830008O07	inactive: -0.411
GGUUAUUAAGUAGCUUUUCTT against Dtx1	inactive: 0.409
CCAGAGAACCAAGUUAUUUTT against Olfr344	inactive: -0.458
CCUUGCUAGUAGAAUAAACTT against Park7	inactive: 0.601
GGCAACGAUGAAAACUACUTT against Runx1	inactive: 0.439
GGAGAUGCUCUGCUGGUGUTT against Cyb561	inactive: 1.67
GGCGACACAGCAAAUGAAATT against Serpinb5	inactive: 0.667
GGGUUUCAAUAUGAUCAAATT against 4932415G16Rik	inactive: -0.433
GGCAGAACUACAUUGAAAATT against Dusp11	inactive: 1.8

Sequence	z-score
GGAAAAUGCUGACUGAUAUTT against Cts8	inactive: -0.971
GGUGAAGAUAGUAAUACGGTT against 9130022K13Rik	inactive: 0.164
GGCUAAGUUCGCUUACAAATT against Tmpit	inactive: -0.222
GCAUGAUAACAGCACUAGGTT against LOC381286	inactive: 0.589
GGCCGACAAUUUGUCAGUUTT against Uaca	inactive: 0.232
CGAAGUCCAAAGCCCAGUATT against 4931406O17Rik	inactive: 1.46
GGAUCUGCUCACAUAGUCATT against Slc2a2	inactive: 0.972
GGAACUUGUUUCAUAUCGUTT against Scfd1	inactive: 0.363
GUGAGUUCUAGAACAGCUATT against BC043934	inactive: 0.854
GCCAAAGUAGUUGAACCUUTT against 6720467C03Rik	inactive: 0.27
GGGCACUCAAGUGUAUGUCTT against Hpxn	inactive: 0.0938
GGUGGACCAAAAAGAACUUTT against 4933417A18Rik	inactive: -0.944
GGCCUUUGUACAGGACCCATT against Tor2a	inactive: -0.249
GGAAGGAGAAAGAGUAUGATT against Mnt	inactive: 0.429
GGAUGUGAGCACAUCUUCUTT against Bard1	inactive: -1.87
GGACAGGCUUACUUCCUGATT against BC052055	inactive: -0.189
CCAAUUUACGACAAAUCGUTT against Entpd4	inactive: -0.269
GGAUGACUUCACUAAGAUUTT against Dpys	inactive: 0.568
GCCAAUAAACCCGUUUUUATT against Fxc1	inactive: 2.92
GGCUAAUUCUCAAAGAGAUTT against 4930588M11Rik	inactive: -1.23
GGGUAUGGCAUAAAUGUCCTT against Zpbp	inactive: -0.562
CGGAGACACCUACAUAUGUTT against LOC378878	inactive: -0.0445
CCACGAAAACGUGAAAUAUTT against Gpd1l	inactive: -0.21

Sequence	z-score
GCUGCUCAAGUUGUGGUGATT against Sdh1	inactive: 0.805
CGCUGUUAUGGUUACCAUATT against Myoc	inactive: 0.411
GGAAAAUUCAGGAAGUUUGTT against 6530407C02Rik	inactive: 0.332
GGUCAGCGUGGAGUCAAUATT against AB041544	inactive: 0.388
GGCUCAGAAAGAAGAACUUTT against Pbxip1	inactive: -1.4
GGUAGCAGUUGCUUUAAUATT against Siah2	inactive: -0.19
GGUACAGGAAAAAAGAAGATT against Msl31	inactive: -0.435
GGGUUAUGACAAGAUGGCUTT against Olfr1440	inactive: 0.979
GGCUAGCUUGGUUCAUUUATT against 2010001O09Rik	inactive: 0.61
GGGCAGCUGGUCAAAAGUCTT against AI875199	inactive: -0.433
GGUGCUGUUUAAAACACAGTT against Stk6	inactive: -0.521
GGUCCUCCAGUUAAUGUCATT against Glra3	inactive: -0.127
GGCGCAGAUGAAGAAUCCGTT against Stxbp1	inactive: 0.785
CCAUUAUGCGUCAAGGCCUTT against Olfr1231	inactive: -0.935
GCGUACGAGCGAAGGAUACTT against Cdc42bpb	inactive: -0.209
GCCUAUAUCCAUGCACUGGTT against Frg1	inactive: 0.112
CGCAUGUGGAAAUGUAACATT against Kbtbd4	inactive: -0.472
CGGGUGAUGUCAAGUUACUTT against Amy1	inactive: 0.492
GGUGUGGAUGUGGUUUUAUTT against Atp5l	inactive: 0.466
GGGCAUUGUCAUGGAGAAUTT against Clstn3	inactive: -2.8
GGCAGAGGCCUUGUGUUUATT against Piwil2	inactive: 0.818

Looked up above:
In z-score, GGUAGCAGUUGCUUUAAUATT against Siah2 shows inactive: -0.19
In z-score, CCAUUAUGCGUCAAGGCCUTT against Olfr1231 shows inactive: -0.935
In z-score, GGCUAAGUUCGCUUACAAATT against Tmpit shows inactive: -0.222
In z-score, GCCUAUAUCCAUGCACUGGTT against Frg1 shows inactive: 0.112
In z-score, GGAGAUCCGAUGUUAUGUGTT against Atp9a shows inactive: -0.699
